This series concerns cryopreserved human hepatocytes. Particulars: each incubation a 24 hour period; single donors or pooled donors; FIGS. 4 and 5.

We go through 1 compound from patent US9518979B2, “Assay to evaluate drug metabolism” (priority 2015, dated 2016).

On to `CN1C(=O)CN=C(c2ccccc2)c2cc(Cl)ccc21` [diazepam], for which the “percent parent compound remaining versus incubation time” value is on record as “time dependent disappearance”.
